Test results published in paper PMC10221034 (2023).
Substitutions are numbered along the chain they refer to. Results are given in words; binding and its absence hold for the method and conditions named. A result given as binding can be weak or reduced; the word gives no strength.

Experiments:
[1] = molecular target: T1, site-specific amino acid-substituted rTpiA K252A (Streptococcus pneumoniae D39) (UniProt Q04JH4); test: SPR; Biacore X100; rTpiA immobilised on CM5 chip by amine coupling; plasminogen 6.25-100 nM injected, contact time 120 s, 20 µL/min; running buffer 100 mM HEPES pH 7.4, 150 mM NaCl, 3 mM EDTA, 0.005% surfactant P20; apparent constants; both purified
T1 sequence: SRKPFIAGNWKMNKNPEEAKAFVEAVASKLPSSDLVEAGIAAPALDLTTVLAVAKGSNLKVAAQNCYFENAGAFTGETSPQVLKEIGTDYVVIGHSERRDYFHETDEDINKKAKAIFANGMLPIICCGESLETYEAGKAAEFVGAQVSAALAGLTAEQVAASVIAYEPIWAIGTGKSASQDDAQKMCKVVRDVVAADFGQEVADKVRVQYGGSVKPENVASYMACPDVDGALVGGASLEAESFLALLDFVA

[2] = molecular target: T2, rTpiA K112A, K113A, K115A (Streptococcus pneumoniae D39) (UniProt Q04JH4); test: far-Western, overlay or dot blot; rTpiA (200 ng) separated by SDS-PAGE and transferred onto PVDF; membrane blocked with 5% BSA in TBST, incubated 90 min with 30 µg/mL plasminogen at 25 °C; bound plasminogen probed with rabbit polyclonal anti-plasminogen and HRP secondary antibody; both purified
T2 sequence: T1 sequence with K111A, K112A, K114A, A251K

[3] = molecular target: T3, rTpiA K139A (Streptococcus pneumoniae D39) (UniProt Q04JH4); test: as above
T3 sequence: T1 sequence with K138A, A251K

[4] = molecular target: T4, rTpiA K216A (Streptococcus pneumoniae D39) (UniProt Q04JH4); test: as above
T4 sequence: T1 sequence with K215A, A251K

[5] = molecular target: T5, rTpiA K21A (Streptococcus pneumoniae D39) (UniProt Q04JH4); test: as above
T5 sequence: T1 sequence with K20A, A251K

[6] = molecular target: T6, rTpiA K4A (Streptococcus pneumoniae D39) (UniProt Q04JH4); test: as above
T6 sequence: T1 sequence with K3A, A251K

**Q.** How did the binding [1] turn out when human plasma plasminogen was run?
**A.** The binding was “binds weakly”.

**Q.** What about the binding [2] of the same substance?
**A.** The binding was “binds”.

**Q.** What about the binding [3] of the same substance?
**A.** Its binding is “binds”.

**Q.** And the binding [4]?
**A.** The binding was “binds”.

**Q.** And the binding [5]?
**A.** The binding was “binds”.

**Q.** What about the binding [6] of the same substance?
**A.** Its binding is “binds”.
